# In publication PMC4847003 (International Journal for Parasitology: Drugs and Drug …, 2015):
# Structures can show the parent of a compound that is named as a salt.
# Columns and labels:
# T. cruzi = settings: ref Planer et al., 2014; cited from earlier work
# T. cruzi trypomastigotes = assay: Trypomastigote viability assay; type: cell-based, Trypanosoma cruzi Tulahuen strain
# [1] = Host cell number in the same well of the amastigote image-based assay; design: species or system mouse; settings: mouse, 3T3 host cells infected with T. cruzi
# 3T3 host cells = assay: as above; design: species or system mouse; settings: 3T3 IC50 or highest dose tested / amastigote IC50
SMILES,activity in an in vivo model of acute infection (T. cruzi),"Trypomastigote activity, % at highest dose (T. cruzi trypomastigotes; at 25.5 μM, library DMSO stock) [% at 25.5 μM]","Trypomastigote activity, % at highest dose (T. cruzi trypomastigotes; at […], solid sample) [% at 21.6 μM]","cytotoxicity at 48 h, 18.3 µM [1] [%]",SI (3T3) (3T3 host cells; library DMSO stock),SI (3T3) (3T3 host cells; solid sample)
"CN1CCC[C@@H]1CCO[C@](C)(c1ccccc1)c1ccc(Cl)cc1 [Clemastine Fumarate, clemastine fumarate, reference compound]",failed to show activity,80,48,48,,
"Clc1ccccc1C(c1ccccc1)(c1ccccc1)n1ccnc1 [Clotrimrazole HCl, clotrimazole]",,,,,>86.84,>107.65
